Laboratory results from patent publication US5858973.

The chains behind the UniProt entries cited, without tags or fusion partners. A line that says so, or that is headed by a name, gives the form on record, which may keep a tag or linker.
UniProt P52947, other isoform, or with tags, fused parts or gaps: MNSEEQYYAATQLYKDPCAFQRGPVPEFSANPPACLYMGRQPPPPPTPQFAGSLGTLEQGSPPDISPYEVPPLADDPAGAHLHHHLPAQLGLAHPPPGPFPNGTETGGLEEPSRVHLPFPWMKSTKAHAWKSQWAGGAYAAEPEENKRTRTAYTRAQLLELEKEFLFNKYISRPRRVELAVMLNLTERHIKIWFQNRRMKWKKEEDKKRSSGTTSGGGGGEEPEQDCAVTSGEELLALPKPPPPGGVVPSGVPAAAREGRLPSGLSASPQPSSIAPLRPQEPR

Target: IDX-1 (native in RIN1027-B2 nuclear extract) (Rattus norvegicus) (UniProt P52947)
Assay: EMSA
Settings: protein in an extract, label: 32P
[1] = complex disrupted by IDX-1 antiserum
[2] = complexes disrupted by IDX-1 antiserum

| Sequence | binding result [1] | binding result [2] | further results |
| --- | --- | --- | --- |
| GATCCAGGCAAGATTATTTGGTCA (double strand) [SMS-PS] | – | – | binding result (no bands perturbed by IDX-1 antiserum): no binding |
| GATCCCTGATTGCATATTAATTCTCAGATA (double strand) [SMS-TAAT1] | binds | – | – |
| GATCCGATCTCAGTAATTAATCATGCACCA (double strand) [SMS-TAAT2] | – | binds | – |
| GATCCGCGAGGCTAATGGTGCGTAAAAGCACTGGTGA (double strand) [SMS-UE-B] | binds | – | – |
| GATCCTTGTTAATCTAATTACCCTAGGTCTAA (double strand) [INS1-FLAT] | – | binds | – |

Results from cells or extracts need not show a direct contact. Negatives hold for the conditions tested.
